The values below come from patent publication US20210061876A1, “T CELL RECEPTORS FOR TUMOR SPECIFIC PROTEASOME SPLICE VARIANTS AND USES THEREOF” (Max-Delbrück-Centrum für Molekulare Medizin in der …, priority 2017, published 2021).

In this data set the test system is human 20S standard and immunoproteasome. The data set can be described thus: In vitro generation of spliced peptides from synthetic mutKras G12V polypeptides by purified 20S proteasomes. It is filed as biochemical. To be noted: standard proteasome and immunoproteasome; mass spectrometry.

KLVVGAVGV: the “in vitro generation by 20S proteasomes” value is “efficient in vitro generation”.
The result for KLVVVAVGV reads “generated in vitro by both 20S proteasome subtypes”; that for KLVVVGVGV, “generated in vitro by both 20S proteasome subtypes”.
